“And” between values parts separate entries of the source, which are not always exact repeats. Equal entries are not always repeated. The whole screen tested about 340,000 compounds, of which about 2,300 (0.68%) were called active. The shares of active, inactive and inconclusive entries below differ from those in the screen. No stated cut-off is given here; in the data, active means growth rescue above about 28% (passing the limit was not always enough); inconclusive means no clear call, values can overlap the other calls.
assay: rescue of yeast from PfHsp40 toxicity, primary screen, S. cerevisiae, ATP luminescence (AID 504582);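 further: yeast W303a lacking pdr1 and pdr3 grown in galactose medium; growth measured after three days at 30 °C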; details: S. cerevisiae expressing PfHsp40, growth rescue, at 12.5 µM, active compounds read high

Structure (SMILES)	growth rescue
O=S(=O)(c1ccccc1)c1cnn(-c2ccccc2)c1-c1ccc(F)cc1	active: 49%
CCCc1[nH]n(-c2ccc([N+](=O)[O-])cc2)c(=O)c1C(C)=NCc1ccncc1	inactive: -0.985%
Cc1ccc(C)c(NC(=S)NNC(=O)c2csc3c2CCCC3)c1	active: 42.1%
O=C(Nc1ccc(OCC(=O)N2CCOCC2)cc1)Nc1cccc2ccccc12	inactive: 0.895%
COc1ccc2nc(C)cc(C(=O)O)c2c1	inactive: -0.927%
Cc1cccc(N(CC(=O)NC2CC3CCC2C3)S(=O)(=O)c2ccccc2)c1 (stereo not drawn)	inconclusive: 26.1%
Cc1nnc(N=c2ssnc2Cl)o1	active: 362%
O=C(Nn1c(Cc2ccccc2)nc2ccccc2c1=O)c1c(O)c2cccc3c2n(c1=O)CCC3	inconclusive: 43.4%
Cc1cccc(NC(=S)/N=C(\N)Nc2nc(C)c3ccccc3n2)c1	inconclusive: 25.3%
COC1=C(N)C(=O)c2nc(C)ccc2C1=O	inactive: -1.16%
CCCCCCSc1ccc([C@H]2N[C@@](CC(C)C)(C(=O)OC)[C@H]3C(=O)N(C)C(=O)[C@@H]23)cc1OC	inconclusive: 27.1%
O=C(O)c1ccc(NC2=C(n3nnc4ccccc43)C(=O)c3ccccc3C2=O)cc1	inactive: -1.36%
CC(NC(=O)CCCCCCN1C(=O)c2ccccc2C1=O)c1ccc2c(c1)CCCC2 (stereo not drawn)	inconclusive: 35.8%
CCN(CC)C(=O)COC(=O)C1CCN(S(=O)(=O)c2ccc3c(c2)OCCO3)CC1	inconclusive: 52.1%
Oc1ccc(Nc2nc(-c3ccccc3O)nc3ccccc23)cc1	inconclusive: 223%
Cc1cccc(Oc2coc3cc(OC(=O)c4cncc(Br)c4)ccc3c2=O)c1	inactive: -0.282% and inactive: -1.31%
COc1ccc(C(=O)N2CCCC(c3nc(-c4ccc(OC)c(OC)c4)no3)C2)c(OC)c1 (stereo not drawn)	inactive: -0.456%
CC(=O)NC1=NN(C(C)=O)C(c2cccs2)S1 (stereo not drawn)	active: 39.9%
COCCCNC(=O)C1CCN(S(=O)(=O)c2c(C)noc2/C=C\c2ccc(OC)cc2)CC1	inactive: -0.402%
Cc1ccc(NC(=O)C(OC(=O)c2ccc(O)cc2)c2ccccc2)cc1Cl (stereo not drawn)	inconclusive: 26.8%
O=C(CSc1ccc2nnc(-c3ccc(F)cc3)n2n1)NCc1ccco1	inconclusive: 32.1%
COc1ccc(-c2nnc(SCC(=O)NC(C)c3ccccc3)o2)cc1OC (stereo not drawn)	inconclusive: 37.3%

Structure (SMILES)	growth rescue
C/C(=N\NC(=S)Nc1ccccc1C)C1Cc2ccccc2C(=O)O1 (stereo not drawn)	inconclusive: 28.3%
CCOC(=O)C(NC(=O)CC)(N1CCc2ccccc2C1)C(F)(F)F (stereo not drawn)	inconclusive: 38.3%
CCCCC(C(=O)NC1CCCC1)N(Cc1ccco1)C(=O)Cn1nnc(-c2ccc(F)cc2)n1 (stereo not drawn)	inconclusive: 26.3%
Nc1nc2ccc(-c3nc4ccccc4o3)cc2s1	inactive: 6.42%
C=C1c2cccc(O)c2C(=O)C2C(=O)[C@]3(O)C(=O)C(C(N)=O)C(=O)[C@@H](N(C)C)[C@@H]3[C@@H](O)[C@H]12 (stereo partly drawn)	active: 59.7%
COc1cccc(CNC(=O)C2CCCN(S(=O)(=O)c3ccc4c(c3)C(C)(C)C(=O)N4C)C2)c1 (stereo not drawn)	inactive: 0.561%
COc1ccccc1N1CCN(Cc2ccccc2)CC1	inconclusive: 25.2%
Oc1ccc(/C=N/N(Cc2ccccc2)c2ccccc2)cc1	inconclusive: 349%
COc1ccccc1-c1coc2c(CN(C)C)c(O)ccc2c1=O	inconclusive: 45.4%
Cc1nnc(SCC(=O)NC(=O)NC(C)(C)C)n1N	active: 52%
CN(CC(=O)Nc1ccccc1Br)C(=O)CNC(=O)c1ccc(Oc2ccccc2)cc1	inconclusive: 40.6%
O=C(Nc1ccc(F)cc1F)c1ccc(-n2cncn2)nc1	inactive: 2.4%
O=C(NCC(c1cccnc1)N1CCN(c2ccccc2)CC1)C1CCCCC1 (stereo not drawn)	inconclusive: 25.1%
CCOC(=O)c1c(NC(=O)COc2ccccc2OCC)sc2c1CC(C)(C)NC2(C)C	inactive: 2.15%
CCCC(NC(=S)NCC1CCCO1)C12CC3CC(CC(C3)C1)C2 (stereo not drawn)	inconclusive: 146%
Cc1ccc(Nc2nc(-c3ccc(O)cc3O)cs2)nc1	inconclusive: 60.5%
Oc1ccc(N=Nc2ccccc2)o1	active: 288%
CC(C)(C)S(=O)N1Cc2cc(=O)n(Cc3ccccc3)cc2[C@H]1CCO (stereo partly drawn)	inactive: -0.384%
CCN(CC)CCn1c(=O)n(-c2ccc(Cl)cc2)c(=O)c2c3c(sc21)CN(C)CC3	inactive: -0.699%
O=C(c1ccc(NS(=O)(=O)c2ccc(F)cc2)cc1)N1CCN(c2ccccc2O)CC1	inactive: 1.51%
Nc1ccc(-c2ccccc2)cc1	inactive: -0.741%
COc1cccc(C(NC(C)=O)c2ccc3cccnc3c2O)c1 (stereo not drawn)	inconclusive: 109%

Among those listed so far, 3 have a furan ring, fused or not:
Structure (SMILES)	growth rescue
O=C(CSc1ccc2nnc(-c3ccc(F)cc3)n2n1)NCc1ccco1	inconclusive: 32.1%
CCCCC(C(=O)NC1CCCC1)N(Cc1ccco1)C(=O)Cn1nnc(-c2ccc(F)cc2)n1 (stereo not drawn)	inconclusive: 26.3%
Oc1ccc(N=Nc2ccccc2)o1	active: 288%

The listing continues.

Structure (SMILES)	growth rescue
CN(C)CCOc1nc(-c2ccccc2)nc2c1oc1ccccc12	inactive: -0.121%
COc1cccc(C2NC(=S)NC3=C2CCc2ccccc23)c1 (stereo not drawn)	active: 173%
Cc1cc(O)c2c(c1)C(=O)C13C(=C2O)C(=O)[C@H]2[C@@H](O)[C@@H]1[C@H]1[C@H](O)[C@@H]3C(=O)C3=C(O)c4c(O)cc(C)cc4C(=O)C312 (stereo partly drawn)	active: 282%
CCCNC(=O)c1ccc2c(=O)c(O)c(-c3ccc(OC)cc3)[nH]c2c1	active: 185%
O=C(OCC(=O)N1CCc2ccccc21)c1ccc([N+](=O)[O-])o1	inconclusive: 136%
COc1nc(Nc2ccc([N+](=O)[O-])cc2)nc(NC2CCCCC2)n1	inconclusive: 46.7%
Cc1cc(C)nc(NS(=O)(=O)c2ccc(NC(=O)Cc3ccc(F)cc3)cc2)n1	inactive: -0.043%
CC1=NN(c2ccc(Cl)c(C(=O)O)c2)C(=O)/C1=C\c1ccc(-c2ccc(C(=O)O)cc2)o1	inactive: -0.451%
COc1cc(C)c(Cl)c(C)c1S(=O)(=O)NCc1cccnc1	inconclusive: 79.9%
O=C(Nc1ccc(N2CCOCC2)cc1)c1ccc(-c2ccccc2[N+](=O)[O-])o1	inconclusive: 133%
Cc1ccc(-c2nnc(Oc3cccc(C)c3)c3ccccc23)cc1	inactive: -0.231%
CCC1CN(C(=O)N2CCC(C(=O)NCc3cc(OC)c(OC)c(OC)c3)CC2)c2ccccc2O1 (stereo not drawn)	inactive: -0.637%
O=[N+]([O-])c1cc(Br)ccc1NS(=O)(=O)c1ccccc1	active: 64.8%
Cc1nc2sc(C)c(C)c2c(=O)[nH]1	inactive: -0.135%
COc1ccccc1NC(=O)NCCCN1CCN(c2cccc(Cl)c2)CC1	inconclusive: 70.2%
O=C(Nc1ccccc1N1CCOCC1)c1cc(F)cc(F)c1	inconclusive: 82.1%
C/C(=N\Nc1ccc([N+](=O)[O-])cc1)c1cccc(N)c1	inconclusive: 29.5%
CC(=O)N1CCN(c2ccc(NC(=O)c3ccc4c(c3)OCO4)cc2)CC1	active: 106%
CCCn1c(N)c(N2CCCCC2)c(=O)n(CC(=O)Nc2ccccc2)c1=O	inactive: -0.03%
COCCCNC(=O)/C=C/c1cccc(Cl)c1	inactive: -0.135%
Nc1nc(-c2ccc(Br)cc2)c(S(=O)(=O)c2ccccc2)s1	inactive: -0.697%
CCN1/C(=C/c2ccc3ccccc3[n+]2CC)C=Cc2ccccc21	active: 166%

Structure (SMILES)	growth rescue
O=C(Nc1ccc(OCC(F)(F)C(F)F)c(C(F)(F)F)c1)c1ccc(Cl)cc1	inconclusive: 157%
CC1CC(C)CN(C(=O)c2ccc3c(c2)N(Cc2ccccc2)CCS3)C1 (stereo not drawn)	inconclusive: 68.9%
CCNc1ccc(Br)cc(C(=O)/C=C/c2ccc3c(c2)OCO3)c1=O	active: 37.1%
O=S(=O)(CCSc1ccccn1)c1nc2ccccc2s1	active: 58.6%
CC1Oc2ccccc2N(Cc2cccc(F)c2)C1=O (stereo not drawn)	inconclusive: 39.2%
O=S(=O)(c1ccc2c(c1)nc1n2CCC1)N1CCOCC1	inconclusive: 34.3%
O=C(O)c1ccc(NC(=O)c2cn(-c3ccccc3)nc2-c2ccc(Br)cc2)cc1	active: 69.5%
COc1ccc(OC)c(S(=O)(=O)N(C)CC(=O)N2CCN(c3cccc(Cl)c3)CC2)c1	inconclusive: 61.6%
COc1cccc(CNc2ncnc3ccc(-c4c(C)noc4C)cc23)c1	active: 32.9%
CC(C)NC(=O)c1ccccc1NC(=O)C(C)Oc1ccccc1 (stereo not drawn)	active: 72.5%
O=C(C[n+]1cc(Br)cc2ccccc21)c1ccccc1	active: 49.4%
Nc1nc(-c2ccccc2)[nH]c(=O)c1N	inactive: -0.496%
CC(=O)c1sc(NC(=O)C(C)C)nc1C	inactive: -0.14%
COc1ccc(C(=O)N2CCN(CC(=O)N3CCOCC3)CC2)cc1	inconclusive: 33.4%
COC(=O)c1[nH]c2ccccc2c1NC(=O)CN1CCC(C(N)=O)(N2CCCCC2)CC1	inconclusive: 44.4%
COc1cc(/C=C/C(=O)OCC(=O)Nc2oc(C)c3c(C)n[nH]c(=O)c23)ccc1OC(F)F	inconclusive: 27.9%
Cc1ccc2nc(-c3cccs3)oc(=O)c2c1	inactive: -1.67%
C=CCCCCCCCCC(=O)N1CCN(c2cc3c(cc2F)c(=O)c(C(=O)O)cn3CC)CC1	inactive: -0.816%
COCCCNc1oc(-c2ccccc2F)nc1C#N	active: 34.4%
Cc1ccccc1CN(c1ccc(C(=O)NCc2cccnc2)cc1)S(C)(=O)=O	inactive: -2.25%
O=C(CCNS(=O)(=O)c1ccc(Cl)cc1)N1CCCCCC1	inconclusive: 26.9%
O=C1OC(c2ccccc2)(c2cc(Br)ccc2O)c2ccccc21 (stereo not drawn)	inconclusive: 37.9%
